The record followed here is paper doi:10.1101/2024.10.10.617623.

This assay deals with T1, Streptococcus pyogenes type II-A Cas2 (Streptococcus pyogenes) (UniProt Q99ZW0).
T1 sequence: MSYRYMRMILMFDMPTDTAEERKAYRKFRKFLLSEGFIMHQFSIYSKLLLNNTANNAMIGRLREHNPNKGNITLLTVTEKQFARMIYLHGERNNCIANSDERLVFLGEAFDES
Briefly: SEC. In general terms: In gel filtration, larger molecules generally elute earlier.

These are yes or no findings as the source states them, for the method shown. Some entries that bind do so weakly or less than the wild type.

B1: Streptococcus pyogenes type II-A Cas1 R5K (enzyme, UniProt Q99ZW1 1-289)
chain: MAGWKTVVVNTHSKLSYKNNHLIFKDAYKTELIHLSEIDILLLETTDIVLSTMLVKRLVDENVLVIFCDDKRLPTAMLMPFYGRHDSSLQLGKQMSWSETVKSQVWTTIIAQKILNQSCYLGACSYFEKSQSIMDLYHGLENFDPSNREGHAARIYFNTLFGNDFSRDLEHPINAGLDYGYTLLLSMFAREVVVSGCMTQFGLKHANQFNQFNFASDIMEPFRPLVDKIVYENRNQPFPKIKRELFTLFSDTFSYNGKEMYLTNIISDYTKKVVKALNNEGKGVPEFRI
As to B1, the binding entry is recorded as “binds”.
